Counter-ions that a name gives are not always drawn. Some of the results follow. Repeats in this data set agree poorly, so a single value says little.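 ReNCell VM, a human fetal ventral-midbrain neural progenitor line, was differentiated without mitogens. Blinded raters scored images stained for doublecortin (early neurons) or tyrosine hydroxylase (dopaminergic neurons) against untreated wells (0 = no change). Scores were averaged across repeats and both raters, and compounds averaging 2 or more were selected as hits for retesting.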

The subject of test [1] is ReNCell VM. In words: neuronal differentiation score (DCX+ cell fraction vs untreated, manual image score) (score (-3 to 3)); higher = more neuronal differentiation. Particulars: 2 uM, 2 weeks.
Test [2] concerns ReNCell VM. Briefly: dopaminergic neuron differentiation score (TH+ cell fraction vs untreated, manual image score) (score (0 to 3)); higher = more TH+ dopaminergic neuron differentiation. As to conditions: 2 uM, 4 weeks, BDNF 10 ng/ml + GDNF 10 ng/ml.

On to `NO` [Hydroxylamine hydrochloride], for which the neuronal differentiation score in the test with ReNCell VM [1] (library: LOPAC) is inactive: 0. The “dopaminergic neuron differentiation score” value in the test with ReNCell VM [2] (library: LOPAC) is inactive: 0.

Consider `O=C1OC2(c3ccc(O)cc3Oc3cc(O)ccc32)c2ccccc21`, for which, in the test on ReNCell VM [1] (library: Spectrum), the neuronal differentiation score was inactive: 0. Moreover, the “dopaminergic neuron differentiation score” value with ReNCell VM [2] (library: Spectrum) was inactive: 0.

With `CC(C)=CCC/C(C)=C/CC/C(C)=C/CC/C(C)=C/CC1=C(C)C(=O)c2ccccc2C1=O`, the neuronal differentiation score in the test on ReNCell VM [1] (library: Spectrum) is inactive: 0. Moreover, the “dopaminergic neuron differentiation score” value in the test on ReNCell VM [2] (library: Spectrum) was inactive: 0.

Turning to `CCOc1ccc2c(c1)C(C)=CC(C)(C)N2` [Ethoxyquin], the neuronal differentiation score in the test with ReNCell VM [1] (library: Prestwick) was inactive: 0. Moreover, the “dopaminergic neuron differentiation score” value with ReNCell VM [2] (library: Prestwick) was inactive: 1.

For the compound `Cc1nnc(NS(=O)(=O)c2ccc(N)cc2)s1`, the neuronal differentiation score with ReNCell VM [1] (library: Spectrum) was inactive: 0. In addition, in the test on ReNCell VM [2] (library: Spectrum), the “dopaminergic neuron differentiation score” value is inactive: 0.

As to `CC(=O)Nc1ccc(OC(C)=O)cc1`, in the test on ReNCell VM [1] (library: Spectrum), the neuronal differentiation score is inactive: 0. For the same compound, the “dopaminergic neuron differentiation score” value in the test on ReNCell VM [2] (library: Spectrum) is inactive: 0.

These data come from the supplement of paper PMC4635364.
